## Screening data

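293T-iDUX4 dual-reporter cells; luminescence of the tet-on Italica luciferase control is read after 24 h.
The test concentration is not given here.
Percent change in the Italica control signal; more negative values mean stronger inhibition, which points to nonspecific, tet-on or cytotoxic effects.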

Values are in %.
Common to all entries: measured here: Italica tet-on control reporter.
Part of the compounds only, not a random draw; the main read-out is not listed here.

compound,activity change (%)
COc1ccccc1C#Cc1ccc2c(c1)[C@H]1[C@H](CCN1C(=O)c1cccc(F)c1)[C@H](CO)N2,-12.14
CN1c2ccc(-c3ccccc3)cc2[C@H]2[C@H](CCN2C(=O)c2ccccc2F)[C@H]1CO,-33.95
Cc1ccccc1S(=O)(=O)N1CC[C@@H]2[C@@H](CO)Nc3ccc(-c4cccc(F)c4)cc3[C@@H]21,-32.78
C[C@H]1CN([C@@H](C)CO)C(=O)c2ccccc2-c2ccccc2CO[C@H]1CN(C)S(=O)(=O)c1ccc(Cl)cc1,-66.97
OC[C@H]1[C@@H](c2ccc(/C=C/c3ccccc3)cc2)[C@@H]2CN(Cc3ccncc3)CCCCN12,-33.2
COc1ccccc1-c1ccccc1[C@@H]1[C@@H](CO)N(C(=O)C2CCC2)[C@H]1C#N,-11.37
COc1ccc2c3c(n(C)c2c1)[C@@H](CO)N(S(=O)(=O)c1ccc(C)cc1)CC31CN(C(=O)c2ccccn2)C1,-11.24
O=C(c1ccc2c(c1)OCO2)N1CC(=O)N2[C@H](CO)[C@@H](c3ccc(C#CC4CCCC4)cc3)[C@H]2C1,-18.2
OC[C@H]1[C@H](c2ccc(-c3ccc(F)cc3)cc2)[C@H]2CN(CCC(F)(F)F)CCCCN21,5.654
CN1c2ccc(-c3cccc(C#N)c3)cc2[C@@H]2[C@@H](CCN2S(=O)(=O)c2ccccc2F)[C@@H]1CO,-8.457
COc1ccc(CN2C[C@@H](O)COC[C@@H]3O[C@@H](CC(=O)N4CCc5ccccc5C4)CC[C@H]32)cc1,-22.71
O=C(C[C@H]1CC[C@@H]2[C@H](COC[C@@H](O)CN2Cc2cccc(C(F)(F)F)c2)O1)NCc1ccc(Cl)cc1,-23.91
CC(C)CC#Cc1ccc([C@@H]2[C@H](CO)N3CCCCN(C(=O)Nc4ccccc4)C[C@@H]23)cc1,-53.63
COc1ccc2c3c(n(C)c2c1)[C@H](CO)N(Cc1ccc2c(c1)OCO2)CC31CCN(C(=O)c2ccc3c(c2)OCO3)CC1,-21.9
COC(=O)[C@H]1[C@H](CO)[C@H]2Cn3c(ccc(-c4ccccc4)c3=O)[C@@H]1N2S(=O)(=O)c1ccccc1C,-11.94
CO[C@@H]1CN(C)C(=O)c2cc(NC(=O)c3ccc(Oc4ccccc4)cc3)ccc2OC[C@@H](C)NC[C@@H]1C,-80.62
O=C(c1ccc2c(c1)OCO2)N1CCCCN2[C@H](C1)[C@@H](c1ccc(-c3ccccc3)cc1)[C@@H]2CO,-46.68
O=C(C[C@@H]1CC[C@H]2[C@@H](COC[C@H](O)CN2S(=O)(=O)c2cccc(Cl)c2)O1)Nc1ccc(-c2ccccc2)cc1,-40.72
O=C(Nc1nccs1)[C@H]1[C@H](CO)[C@H]2Cn3c(ccc(-c4ccccc4)c3=O)[C@H]2N1CC1CCCC1,-6.079
O=C(C[C@@H]1CC[C@@H]2[C@H](COC[C@H](O)CN2CCC(F)(F)F)O1)NCc1ccc(Oc2ccccc2)cc1,-19.92
COc1ccc2c3c(n(C)c2c1)[C@@H](CO)N(Cc1cc(F)ccc1F)CC31CCN(C(=O)C2CC2)CC1,-37.63
O=C(C1CCCCC1)N1[C@@H](CO)[C@@H](c2ccccc2)C12CN(Cc1ccc(F)cc1)C2,-18.52
O=C(Nc1ccc2c(c1)[C@H]1C[C@H](CC(=O)N3CCc4ccccc4C3)O[C@H](CO)[C@H]1O2)c1ccc2c(c1)OCO2,-31.71
C[C@H]1CN([C@@H](C)CO)C(=O)c2c(c3ccccc3n2C)-c2ccccc2CO[C@@H]1CN(C)C(=O)[C@H](Cc1ccccc1)N(C)C,-13.82
O=C(C[C@@H]1CC[C@H]2[C@@H](COC[C@@H](O)CN2S(=O)(=O)c2cccc(Cl)c2)O1)Nc1ccc(-c2ccccc2)cc1,-13.54
O=C(CN1CCOCC1)N1CCCCN2[C@H](CO)[C@H](c3ccc(C#Cc4ccccc4F)cc3)[C@@H]2C1,-13.32
COc1ccc(C#Cc2ccc([C@@H]3[C@@H](CO)N4CCCCN(S(=O)(=O)c5cn(C)cn5)C[C@@H]34)cc2)cc1,-5.288
COc1ccc(C#Cc2ccc([C@@H]3[C@H](CO)N4CCCCN(C(=O)Cc5cccnc5)C[C@@H]34)cc2)cc1,-15.94
O=C(C[C@H]1CC[C@@H]2[C@H](COC[C@@H](O)CN2Cc2ccc(F)cc2)O1)NCc1ccccc1Cl,-15.95
COc1ccc(S(=O)(=O)N[C@H]2C=C[C@H](CC(=O)N3CCC(Cc4ccccc4)CC3)O[C@@H]2CO)cc1,-8.629
CO[C@H]1CN(C)C(=O)c2cc(NC(=O)c3ccc(Oc4ccccc4)cc3)ccc2OC[C@H](C)NC[C@H]1C,-84.65
COc1ccccc1-c1ccc([C@H]2[C@H](CO)N3CCCCN(C(=O)NC4CCCC4)C[C@@H]23)cc1,-6.054
COc1ccc2c3c([nH]c2c1)[C@@H](CO)N(C(=O)Nc1ccc(F)cc1)CC31CN(CC2CC2)C1,-5.713
O=C(c1ccccn1)N1CC2(C1)[C@H](c1ccccc1)[C@@H](CO)N2Cc1ccc(Cl)cc1,-14.32
C/C=C/c1ccc2c(c1)[C@H]1[C@H](CCN1C(=O)c1ccc(F)cc1)[C@H](CO)N2,-11.8
N#Cc1cccc(-c2ccc(C3[C@@H]4CN(S(=O)(=O)c5ccc(F)cc5)C[C@H]3N4)cc2)c1 (some centres unmarked),-10.34
Cc1ccccc1S(=O)(=O)N(C)C[C@@H]1OCc2ccccc2-c2ccccc2C(=O)N([C@@H](C)CO)C[C@H]1C,1.854
O=C(C[C@@H]1CC[C@H]2[C@@H](COC[C@@H](O)CN2Cc2ccc(Cl)cc2)O1)NCc1cccc(F)c1,-27.9
O=C(C1CCCCC1)N1C[C@@H]2N[C@H](C1)C2c1ccc(-c2ccccc2F)cc1 (some centres unmarked),-2.368
N#C[C@H]1[C@H](c2ccccc2C2=CCCCC2)[C@@H](CO)N1S(=O)(=O)c1ccccc1,-98.23
O=C(Nc1cccc(F)c1)N1CCCCN2[C@H](CO)[C@H](c3ccc(C#Cc4cccnc4)cc3)[C@H]2C1,-25.09
C/C=C/c1ccc([C@H]2[C@@H](CO)N3CCCCN(C(=O)Nc4cc(F)ccc4F)C[C@H]23)cc1,2.948
CCCC#Cc1ccc([C@H]2[C@@H](CO)N3C(=O)CN(S(=O)(=O)c4ccccc4C)C[C@H]23)cc1,-15.03
COc1ccc2c3c([nH]c2c1)[C@@H](CO)N(Cc1cccc(Cl)c1)CC31CN(C)C1,-18.97
N#Cc1ccc(-c2ccc3c(c2)[C@H]2[C@H](CCN2S(=O)(=O)c2ccccc2F)[C@H](CO)N3)cc1,-59.78
CCCNC(=O)N1[C@@H](CO)[C@@H](c2ccccc2)C12CN(CCC(F)(F)F)C2,-11.17
COc1ccc2c3c([nH]c2c1)[C@@H](CO)N(Cc1ccc(Cl)cc1)CC31CN(Cc2nccs2)C1,-12.66
COc1ccc2c3c([nH]c2c1)[C@@H](CO)N(Cc1ccccc1)CC31CCN(CC2CC2)CC1,-82.67
Cc1ccc(-c2ccc([C@@H]3[C@H](CO)N4CCCCN(C(=O)Nc5ccccc5)C[C@@H]34)cc2)cc1,-88.25
O=C(C[C@H]1CC[C@@H](NC(=O)c2ccc3c(c2)OCO3)[C@H](CO)O1)NCc1ccc(Oc2ccccc2)cc1,-7.705
O=C(Nc1ccc2c(c1)[C@@H]1C[C@@H](CC(=O)N3CCc4ccccc4C3)O[C@H](CO)[C@@H]1O2)c1ccc2c(c1)OCO2,-30.32
O=C(C[C@H]1CC[C@@H]2[C@H](COC[C@@H](O)CN2C(=O)Nc2cccc(Cl)c2)O1)NCC1CCCCC1,-2.191
COc1cccc(S(=O)(=O)N2CC[C@@H]3[C@H]2c2cc(Br)ccc2N[C@@H]3CO)c1,-12.06
OC[C@@H]1[C@H](c2ccc(C#Cc3ccccc3)cc2)[C@H]2CN(CC3CCOCC3)CCCCN12,-7.766
O=C(C[C@H]1C[C@@H]2c3cc(NC(=O)Nc4ccc(C(F)(F)F)cc4)ccc3O[C@@H]2[C@@H](CO)O1)NCC1CC1,-14.82
C[C@H]1CN([C@@H](C)CO)C(=O)c2c(c3ccccc3n2C)-c2ccccc2CO[C@@H]1CN(C)S(=O)(=O)c1ccc(C(F)(F)F)cc1,-94.53
CC(C)CC#Cc1ccc([C@H]2[C@H](CO)N3C(=O)CN(C(=O)Nc4cc(F)ccc4F)C[C@@H]23)cc1,-77.28
CC(C)CC#Cc1ccc([C@H]2[C@H](CO)N3C(=O)CN(C(=O)Nc4ccc(F)cc4)C[C@@H]23)cc1,-4.381
COc1ccc2c3c(n(C)c2c1)[C@@H](CO)N(Cc1ccccc1)CC31CN(C(=O)c2ccccc2F)C1,-44.29
COc1ccccc1C#Cc1ccc([C@@H]2[C@@H](CO)N3CCCCN(CCC(F)(F)F)C[C@@H]23)cc1,3.01
COc1ccc(-c2ccc([C@@H]3[C@H](CO)N4CCCCN(C(=O)c5ccc(F)cc5)C[C@@H]34)cc2)cc1,-20.87

Some entries from above, unchanged:

compound	activity change (%)
CC(C)CC#Cc1ccc([C@@H]2[C@H](CO)N3CCCCN(C(=O)Nc4ccccc4)C[C@@H]23)cc1	-53.63
O=C(C[C@@H]1CC[C@H]2[C@@H](COC[C@@H](O)CN2S(=O)(=O)c2cccc(Cl)c2)O1)Nc1ccc(-c2ccccc2)cc1	-13.54
COc1ccccc1-c1ccccc1[C@@H]1[C@@H](CO)N(C(=O)C2CCC2)[C@H]1C#N	-11.37
CCCNC(=O)N1[C@@H](CO)[C@@H](c2ccccc2)C12CN(CCC(F)(F)F)C2	-11.17
O=C(C[C@H]1CC[C@@H]2[C@H](COC[C@@H](O)CN2Cc2ccc(F)cc2)O1)NCc1ccccc1Cl	-15.95
COc1ccc(CN2C[C@@H](O)COC[C@@H]3O[C@@H](CC(=O)N4CCc5ccccc5C4)CC[C@H]32)cc1	-22.71
OC[C@@H]1[C@H](c2ccc(C#Cc3ccccc3)cc2)[C@H]2CN(CC3CCOCC3)CCCCN12	-7.766

From PubChem BioAssay record AID1224904 (Broad Institute, 2016).